The record followed here is PubChem BioAssay AID1487 (National Center for Advancing Translational Sciences (NCATS), 2009).

By AC50 is commonly meant the concentration giving half of the maximal activity seen.

Some of the results follow. Further columns of the screen follow, without active or inactive calls. Most of these compounds were active or inconclusive in the main read-out, so they are no random draw. Potencies come from curve fits of mixed quality, noted in brackets.

The assay in a line: qHTS Assay for Modulators of Lamin A Splicing. Conditions: HeLa LMNA splicing GFP/RFP minigene ratio, 48 h. The procedure, abridged: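 Read-out is the ratio of GFP to DsRed2 object intensity, acquired by 488 nm laser-scanning cytometry on HeLa lamin A-EGFP minigene reporter cells. Compound incubation 48 hrs at 37 °C in Opti-MEM with 2% FBS; DMSO 0.5% final.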
(qHTS replaces the single test concentration by a dilution series.)

Where [1] appears, read: measured here: RFP viability control channel.
[2] abbreviates: measured here: GFP splicing reporter channel.

Turning to `COc1cc2ncnc(NCc3ccccc3)c2cc1OC`, under setting [1], the AC50 is 22.4 µM [rising, single point]. `CCOc1ccc(NS(=O)(=O)c2cc(OCC(N)=O)c(C)cc2Cl)cc1`: the AC50 is 17.8 µM [rising, single point] under setting [2] and 20 µM [rising, single point] under setting [1]. Regarding `O=C(CSc1ccc(Cl)cc1)Nc1ccccc1N1CCN(C(=O)c2ccccc2)CC1`, the AC50 under setting [2] is 10 µM [rising, partial curve, poor fit]. `O=S(=O)(c1ccc(Cl)c(C(F)(F)F)c1)N1CCN(c2ccccn2)CC1`: the AC50 under setting [1] was 0.0501 µM [falling, full curve, poor fit]. As for `CCOC(=O)N1CCC(NC(=S)Nc2ccc3nc(N4CCN(C)CC4)cc(C)c3c2)CC1`, under setting [2], the AC50 was 20 µM [falling, single point]. In the case of `CCOc1ccc(N2C(=O)C3C(C2=O)C3(c2ccccc2)c2ccccc2)cc1` (stereo unspecified), the AC50 under setting [2] is 22.4 µM [rising, single point] and the AC50 under setting [1] is 22.4 µM [rising, single point]. `CCCCC(=O)NC(=S)Nc1cc([N+](=O)[O-])ccc1OC`: the AC50 under setting [1] is 22.4 µM [falling, partial curve, poor fit]. Still for that read-out and setting: as for `Fc1ccc(N2CCN(C(c3cccs3)c3nnnn3C3CCCC3)CC2)cc1` (stereo unspecified), the figure is 35.5 µM [rising, single point]. Consider `Cc1ccc(S(=O)(=O)N2CCN(c3nc(C)c4c(c3C#N)CC(C)(C)OC4)CC2)cc1`, for which the AC50 by setting is: under setting [2], 0.891 µM [rising, partial curve, poor fit]; under setting [1], 35.5 µM [rising, single point]. Turning to `CCOc1ccc(C2C(=O)N(C3CCCCCC3)CC(=O)N2CCc2ccc(Cl)cc2)cc1OC` (stereo unspecified), the half-maximal activity concentration (AC50) under setting [1] was 4.47 µM [rising, partial curve, poor fit]. `COc1ccc(-c2cc(C(=O)N3CCCc4ccccc43)no2)cc1`: the concentration at half-maximal activity (AC50) was 11.2 µM [rising, partial curve] under setting [2] and 7.08 µM [rising, partial curve] under setting [1].

Take `OCC1(Cc2ccccc2)CCCN(Cc2cn[nH]c2-c2ccccc2)C1` (stereo unspecified): the AC50 runs as follows: under setting [2], 35.5 µM [falling, partial curve, poor fit]; under setting [1], 35.5 µM [falling, partial curve, poor fit]. In the case of `C=CCOc1ccc2c(c1)C(=NO)c1cc(OCC=C)ccc1-2`, the AC50 reads like this: under setting [2], 20 µM [rising, single point]; under setting [1], 12.6 µM [rising, partial curve]. Consider `CCCN(CC1CC1)C(=S)Nc1ccc(Oc2ccccc2)cc1`, for which, under setting [1], the concentration at half-maximal activity (AC50) was 35.5 µM [rising, single point]. On the same count and under the same terms, as for `Cc1ccc(Nc2nc(-c3c(C)nc4ccccn34)cs2)cc1`, the figure is 0.141 µM [rising, full curve]; as for `COc1ccc(-c2noc(CN(C)S(=O)(=O)c3ccc(Cl)cc3)n2)cc1OC`, 35.5 µM [rising, single point]. `CCCOc1ccc(CN(CCC#N)C(=S)NC(=O)c2ccccc2)cc1`: the AC50 under setting [1] was 25.1 µM [rising, single point]. Consider `Fc1ccc2[nH]c3c(NCCN4CCOCC4)ncnc3c2c1`, for which the AC50 under setting [2] was 11.2 µM [rising, partial curve, poor fit].

Consider `CCc1cc2c3c(c(=O)oc2cc1OC)CCCC3`, for which the half-maximal activity concentration (AC50) under setting [2] is 35.5 µM [rising, single point]. On the same count and under the same terms, the same measure for `CC(C)(C)Nc1c(-c2cccs2)nc2ccccn12`: 6.31 µM [rising, single point]. In the case of `O=[N+]([O-])c1cc(-c2n[nH]c(-c3ccccc3)n2)cc([N+](=O)[O-])c1`, under setting [1], the AC50 is 3.55 µM [rising, single point].

Turning to `Cc1cc(C(=O)OCC(=O)Nc2cccnc2Cl)c2ccccc2n1`, under setting [1], the AC50 was 0.0562 µM [falling, full curve, poor fit]. Still for that read-out and setting: the same measure for `Cc1ccc(/C(N)=N/OC(=O)Cc2cccc3ccccc23)cc1`: 35.5 µM [rising, single point]; for `CCN(CC)c1ccc(C2C(C(=O)OC(C)C)C(=O)CC(C)(O)C2C(=O)OC(C)C)cc1` (stereo unspecified): 31.6 µM [rising, single point]; for `COc1cc(CSc2nnnn2-c2ccc(C)cc2)cc(OC)c1OC`: 3.16 µM [rising, full curve]. The same measure, in the same setting: the same measure for `Cc1cccc(CNc2nc(-c3cccnc3)nc3ccccc23)c1`: 22.4 µM [falling, partial curve, poor fit]. On the same count and under the same terms, the same measure for `c1ccc(C(Cc2nc(-c3ccncc3)no2)c2ccccc2)cc1`: 3.55 µM [rising, full curve]. Regarding `Fc1ccccc1Nc1ncnc2c1nc1n2CCCCC1`, under setting [2], the AC50 is 0.794 µM [falling, full curve]. As for `Cc1cccc(CCNC(=O)c2c[nH]c3ccc(S(=O)(=O)Nc4ccccc4F)cc3c2=O)c1`, the concentration at half-maximal activity (AC50) under setting [1] was 11.2 µM [falling, partial curve, poor fit].

Take `CC(C)c1ccc(S(=O)(=O)c2cc3cc(Br)ccc3oc2=O)cc1`: the half-maximal activity concentration (AC50) under setting [1] was 5.62 µM [rising, single point]. On the same count and under the same terms, as for `O=c1cc(-c2ccccc2Cl)oc2ccc([N+](=O)[O-])c(O)c12`, the figure is 1.78 µM [rising, full curve]; as for `COc1cccc(-c2nnc3sc(CN4CCCCC4)cn23)c1`, 1.78 µM [rising, full curve]. In the case of `CS(=O)(=O)Nc1cccc(-c2nccc(Nc3ccc(F)cc3)n2)c1`, the AC50 is 4.47 µM [falling, partial curve, poor fit] under setting [2] and 6.31 µM [falling, partial curve, poor fit] under setting [1].

In the case of `CCOCC(=O)Nc1cc(C(=O)Nc2ccc(F)cc2)ccc1Cl`, under setting [2], the half-maximal activity concentration (AC50) was 0.708 µM [falling, single point]. Take `CCN(c1ccccc1)S(=O)(=O)c1cc([N+](=O)[O-])ccc1N`: under setting [1], the AC50 was 20 µM [rising, single point].

Regarding `Cc1ccccc1-n1c(C)cc(/C=C(\C#N)C(=O)NCC2CCCO2)c1C` (stereo unspecified), the AC50 under setting [1] was 12.6 µM [rising, single point]. With `c1ccc(CNc2ncnc3ccc(-c4ccc5c(c4)OCO5)cc23)cc1`, the AC50 runs as follows: under setting [2], 35.5 µM [falling, single point]; under setting [1], 35.5 µM [falling, single point]. `COc1ccc(C(=O)Nc2cccc(C)c2)cc1S(=O)(=O)N1CCOCC1`: under setting [1], the AC50 is 14.1 µM [rising, single point].
